Data source: PubChem BioAssay AID1224828 (NIAID, 2016)
Purpose: 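Knock-downs that increase or decrease LPS-induced p65 nuclear translocation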 (primary screen). Cells: mouse RAW264.7 G9 macrophage reporter cells (GFP-p65, Tnf promoter-mCherry). Reagents: siRNA pool against mouse genes, 100 nM. Duration: 2 days siRNA transfection, then 40 min LPS before fixation. Conditions: LPS (Salmonella minnesota R595) at 10 ng/ml. Measured: 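Microscopy ratio of nuclear to perinuclear-ring GFP-p65 signal, scaled to the plate median; gene score is the average of two replicate robust z-scores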. Scale: p65 translocation robust z-score: higher = more nuclear NF-kappaB p65 after LPS than the plate median; nuclear/cytoplasmic p65 ratio: higher = more nuclear NF-kappaB p65. Call rule: 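Called active when z exceeds 3.3 or falls under -1.56 (median of Tlr4 controls), giving activity score of at least 50; no calls for control wells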. Meaning of the calls: active = hit (p65 shift raised or lowered); inactive = no clear change.
In all, the deposit lists about 17,000 reagents; below is a random part of them. 762 of all reagents (4.5%) count as active. 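Active calls include both raised and lowered p65 entry, mostly lowered; wells with fewer than 50 cells lack a z-score.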 The raw values are shown without normalisation. Unmarked entries are inactive.

Wdfy1 (WD repeat and FYVE domain containing 1) gave p65 translocation robust z-score 1.06; nuclear/cytoplasmic p65 ratio, rep 1 = 1.5; nuclear/cytoplasmic p65 ratio, rep 2 = 1.41; low cell count flag enough cells to score. Ifnab (interferon alpha B) gave nuclear/cytoplasmic p65 ratio, rep 1 = 1.29; nuclear/cytoplasmic p65 ratio, rep 2 = 1.31; low cell count flag fewer than 50 cells per well; well left out of scoring. After knock-down of Edem3 (ER degradation enhancer, mannosidase alpha-like 3), the screen gave p65 translocation robust z-score 1.44; nuclear/cytoplasmic p65 ratio, rep 1 = 1.74; nuclear/cytoplasmic p65 ratio, rep 2 = 1.91; low cell count flag enough cells to score. With knock-down of Eny2 (ENY2 transcription and export complex 2 subunit), the screen gave p65 translocation robust z-score -1.93 (active); nuclear/cytoplasmic p65 ratio, rep 1 = 1.1; nuclear/cytoplasmic p65 ratio, rep 2 = 1.09; low cell count flag enough cells to score. Knock-down of Zfp704 (zinc finger protein 704) gave: p65 translocation robust z-score -1.45; nuclear/cytoplasmic p65 ratio, rep 1 = 1.36; nuclear/cytoplasmic p65 ratio, rep 2 = 1.41; low cell count flag enough cells to score. With knock-down of 2900052L18Rik (RIKEN cDNA 2900052L18 gene) the results were nuclear/cytoplasmic p65 ratio, rep 1 = 1.12; nuclear/cytoplasmic p65 ratio, rep 2 = 0.789; low cell count flag fewer than 50 cells per well; well left out of scoring.

Mrps31 (mitochondrial ribosomal protein S31) scored p65 translocation robust z-score 0.98; nuclear/cytoplasmic p65 ratio, rep 1 = 2.03; nuclear/cytoplasmic p65 ratio, rep 2 = 1.67; low cell count flag enough cells to score. With knock-down of Snx5 (sorting nexin 5), the screen gave p65 translocation robust z-score 0.48; nuclear/cytoplasmic p65 ratio, rep 1 = 1.55; nuclear/cytoplasmic p65 ratio, rep 2 = 1.69; low cell count flag enough cells to score. Sqstm1 (sequestosome 1) showed nuclear/cytoplasmic p65 ratio, rep 1 = 1.61; nuclear/cytoplasmic p65 ratio, rep 2 = 1.56; low cell count flag fewer than 50 cells per well; well left out of scoring. Knock-down of Wdr33 (WD repeat domain 33) gave: p65 translocation robust z-score -1.15; nuclear/cytoplasmic p65 ratio, rep 1 = 1.34; nuclear/cytoplasmic p65 ratio, rep 2 = 1.33; low cell count flag enough cells to score. Against Mtres1 (mitochondrial transcription rescue factor 1), the entry reads nuclear/cytoplasmic p65 ratio, rep 1 = 1.31; nuclear/cytoplasmic p65 ratio, rep 2 = 1.44; low cell count flag fewer than 50 cells per well; well left out of scoring. Silencing of Myt1 (myelin transcription factor 1) gave: p65 translocation robust z-score -1.33; nuclear/cytoplasmic p65 ratio, rep 1 = 1.24; nuclear/cytoplasmic p65 ratio, rep 2 = 1.2; low cell count flag enough cells to score.

Knock-down of Snw1 (SNW domain containing 1) resulted in: p65 translocation robust z-score 0.11; nuclear/cytoplasmic p65 ratio, rep 1 = 1.44; nuclear/cytoplasmic p65 ratio, rep 2 = 1.25; low cell count flag enough cells to score. Gp6 (glycoprotein 6 platelet) gave p65 translocation robust z-score 0.14; nuclear/cytoplasmic p65 ratio, rep 1 = 1.41; nuclear/cytoplasmic p65 ratio, rep 2 = 1.44; low cell count flag enough cells to score. Knock-down of Dnajb8 (DnaJ heat shock protein family (Hsp40) member B8) resulted in: p65 translocation robust z-score 1.08; nuclear/cytoplasmic p65 ratio, rep 1 = 1.63; nuclear/cytoplasmic p65 ratio, rep 2 = 1.48; low cell count flag enough cells to score. After knock-down of Teddm2 (transmembrane epididymal family member 2), the record shows p65 translocation robust z-score -0.64; nuclear/cytoplasmic p65 ratio, rep 1 = 1.38; nuclear/cytoplasmic p65 ratio, rep 2 = 1.61; low cell count flag enough cells to score. Silencing of Acsm1 (acyl-CoA synthetase medium-chain family member 1) resulted in: p65 translocation robust z-score -0.3; nuclear/cytoplasmic p65 ratio, rep 1 = 1.43; nuclear/cytoplasmic p65 ratio, rep 2 = 1.44; low cell count flag enough cells to score. Against Or2t6 (olfactory receptor family 2 subfamily T member 6) the deposit lists p65 translocation robust z-score -0.69; nuclear/cytoplasmic p65 ratio, rep 1 = 1.41; nuclear/cytoplasmic p65 ratio, rep 2 = 1.39; low cell count flag enough cells to score.

With knock-down of Cd40 (CD40 antigen), the screen gave p65 translocation robust z-score 0.07; nuclear/cytoplasmic p65 ratio, rep 1 = 1.55; nuclear/cytoplasmic p65 ratio, rep 2 = 1.51; low cell count flag enough cells to score. With knock-down of Nedd9 the results were p65 translocation robust z-score -1.25; nuclear/cytoplasmic p65 ratio, rep 1 = 1.58; nuclear/cytoplasmic p65 ratio, rep 2 = 1.4; low cell count flag enough cells to score. Nfasc (neurofascin) gave p65 translocation robust z-score -0.33; nuclear/cytoplasmic p65 ratio, rep 1 = 1.67; nuclear/cytoplasmic p65 ratio, rep 2 = 1.59; low cell count flag enough cells to score.

Individual results from above.
Value for Snw1 (SNW domain containing 1) in “nuclear/cytoplasmic p65 ratio, rep 1”: 1.44
Cd40 (CD40 antigen), low cell count flag = enough cells to score
Under “nuclear/cytoplasmic p65 ratio, rep 2”, Gp6 (glycoprotein 6 platelet) has 1.44
